# Laboratory results published in paper PMC10163288.
# Some of the results follow.
# B1: il10ra_site1_sap_7_mot_HHH_b1_02464_000000069_0001_1_19_H_._HHH_b1_04704_af2_0001_0000100004_0000002_0_0001 (protein)
# chain: SSSSDREEELEELLKELEKLVEEGDRERFAEVVKRVLRLAFQANDPEALQEVWRIMREYKSSSSS
# B2: il10ra_site1_normal_mot_HHH_b1_06057_000000129_0001_22_38_H_._HHH_b1_06187_0001_0000100008_0000002_0 (protein)
# chain: SSSSTLEESVRFALRVAEELREQGDPEAARELLEKLLELLKEAGDDELFRLVEELLEELEKSSSS
# B3: il10ra_site1_sap_18_mot_HHH_b2_04275_000000272_0001_20_36_H_._HHH_b1_07345_af2_0001_0000300023_0000001_0_0001_af2pred_0001 (protein)
# chain: TEEILEAVEELLRELNTPKAKALLYLIKYLRERGAPPEHILESLKAAARVLGDPEVLRLIEEAEK
# B4: il10ra_site1_normal_mot_HHH_b1_00952_af2_000000199_0001_44_57_H_._66c2fca85847babee3b8944584cfd08f_0001_1_0001_0000400019_0000001_0 (protein)
# chain: SQWERSLKLAFESGNLESLIEQFQWQAEFQGNPELEKVVELLREALEKRDPELLEEAIEVLEKLA
# B5: il10ra_site1_sap_23_mot_HHH_b2_06507_af2_000000245_0001_1_17_H_._HHH_b1_00115_af2_0001_0000400016_0000001_0_0001 (protein)
# chain: SSSSSNEELYELIKKANELLKEGNPEEAEEVLKEAEELARELGNRVFLVQVEFLLRALRSSSSSS
# B6: il10ra_site1_normal_mot_HHH_b1_07449_af2_000000024_0001_1_18_H_._a87409d3d07ab778cdfa687b5837bbba_0001_0001_0000100004_0000001_0_af2pred_0001 (protein)
# chain: SIEEILMELIFRFRDDPELFELLIEAYALLNEGNPEEAVEVLERVLREAGVPPEQVERLKEEAEK
# B7: il10ra_site1_normal_mot_HHH_b1_01082_af2_000000031_0001_3_19_H_._HHH_b2_03304_af2_0001_0000100003_0000002_0 (protein)
# chain: SSSSSDEEYRIAKEAIEEARHIEDKEEARKVIEEAIEVAEEGNNTSAAFALRHLLRLLEQSSSSS
# B8: il10ra_site1_normal_mot_HHH_b2_03764_000000138_0001_1_20_H_._HHH_b2_04981_0001_0000500053_0000001_0 (protein)
# chain: SSSSDEEFEEVYRLLEEASELDQEGDKEEAEKLVEEAIELAREGGNEVLTWSAEYLLRIIRSSSS
# B9: il10ra_site1_sap_24_mot_104c758fc23488854646035ccb2100c6_0001_000000282_0001_15_29_H_._94e27040e1373b393086b07032fe3839_0001_af2_0001_0000400015_0000001_0_0001 (protein)
# chain: SSSSSDFEEFKRLVQEVLEAIREGDEEKARELLEELERLARELNNWAAKWTVRLLEEQIRSSSSS
# B10: il10ra_site1_sap_24_mot_HHH_b2_03743_af2_000000240_0001_38_52_H_._HHH_b1_00224_0001_0000300021_0000001_0_0001 (protein)
# chain: SSSSDMEEELVEALERLVRQAIEWGDPESARLLLEAAEMLAEELGDPELERLVEELEELLNSSSS
# B11: il10ra_site1_normal_mot_HHH_b1_05357_000000034_0001_23_39_H_._HHH_b2_05287_0001_0000100004_0000001_0_af2pred_0001 (protein)
# chain: SSSSSSESEEEVKELLEEAKKIEDLEEFNYVLIRAFAVARRAGDPELEELIEEFAQEESSSSSSS
# B12: il10ra_site1_normal_mot_8756ee2cf497b5429c717dfc0c0bcfd6_0001_000000186_0001_1_13_H_._HHH_b1_01787_0001_0000300030_0000001_0 (protein)
# chain: SSSSSSTEELLELLREVAELEHEGNHEEAREVIEEAKELAEEAGNDVFLVQIEYLLREVNSSSSS
# B13: il10ra_site1_normal_mot_HHH_b1_08176_000000188_0001_1_20_H_._HHH_b1_03017_af2_0001_0000300015_0000001_0 (protein)
# chain: SSSSDEEFQEALELILEAVRLLLRGDEEEAEELLEKAKELVEKEGDERLARVIESLLEAISSSSS
# B14: il10ra_site1_sap_21_mot_HHH_b2_02736_000000092_0001_22_38_H_._HHH_b1_00790_0001_0000300014_0000001_0_0001_af2pred_0001 (protein)
# chain: SSSSSEEELRERIEELLEEAKHLEDPREVFELLVEAFLLALKAGDPELEELVREAAKELASSSSS
# B15: il10ra_site1_normal_mot_HHH_b1_05056_000000217_0001_1_20_H_._HHH_b1_02171_0001_0000600040_0000001_0 (protein)
# chain: SSSSSSSDYEEEVEELLEEAQRVSEEEASELLAKAVQLAFENSNEELLKLVWEVVKEASSSSSSS
# B16: il10ra_site1_sap_21_mot_HHH_b2_03220_af2_000000223_0001_23_40_H_._HHH_b2_03430_af2_0001_0000100005_0000001_0_0001 (protein)
# chain: SSSSDEELEEFVEELVEKFNLDETLERNLRLLVESLEELGFSEEEIKKLLEKSAEQIARQQSSSS
# B17: il10ra_site1_sap_23_mot_HHH_b1_02492_000000051_0001_1_21_H_._HHH_b1_07288_af2_0001_0000200014_0000001_0_0001 (protein)
# chain: SSSSDAAHRVYELLRRAIELLRDGNPEEAREVLEEAQELAEEGNNRVMRVQIRFLEKQIDSSSSS
# B18: il10ra_site1_sap_19_mot_HHH_b1_06914_000000280_0001_1_18_H_._HHH_b1_04080_0001_0000200018_0000001_0_0001_af2pred_0001 (protein)
# chain: SSSSSSDEEEEVRELLEEAKHVDDEEEAFKVVAEAARLALELQNQELLQLALKLAEELSSSSSSS
# B19: il10ra_site1_sap_28_mot_HHH_b2_06480_af2_000000075_0001_1_18_H_._HHH_b1_07267_af2_0001_0000100003_0000001_0_0001_af2pred_dldesign_0_af2pred (protein)
# chain: SSSSSPEREALQKALDYLEWMIEAGDREGAARALANLTDLARRLNDAEALARLAELRARLESSSS
# Target: il10ra, Q13651
# Assay: yeast display titration
row,Binder,apparent Kd
1,B1,inactive: no binding seen
2,B2,inactive: no binding seen
3,B3,inactive: no binding seen
4,B4,inactive: no binding seen
5,B5,inactive: no binding seen
6,B6,inactive: no binding seen
7,B7,inactive: no binding seen
8,B8,inactive: no binding seen
9,B9,inactive: no binding seen
10,B10,inactive: no binding seen
11,B11,inactive: no binding seen
12,B12,inactive: no binding seen
13,B13,inactive: no binding seen
14,B14,inactive: no binding seen
15,B15,inactive: no binding seen
16,B16,inactive: no binding seen
17,B17,inactive: no binding seen
18,B18,inactive: no binding seen
19,B19,inactive: no binding seen

# Rewritten with tabs: part of the list above.
row	Binder	apparent Kd
7	B7	inactive: no binding seen
17	B17	inactive: no binding seen
